{"sequences": {"note": "Protein sequences, listed by entry. Tags and fused reporters are not part of them. Lines headed by an entry give the natural chain unless they say otherwise; changes in a name come on top.", "UniProt Q96B45": "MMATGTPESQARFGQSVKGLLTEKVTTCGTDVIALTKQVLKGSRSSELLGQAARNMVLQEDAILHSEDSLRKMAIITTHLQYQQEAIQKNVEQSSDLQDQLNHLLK", "UniProt Q96JP5": "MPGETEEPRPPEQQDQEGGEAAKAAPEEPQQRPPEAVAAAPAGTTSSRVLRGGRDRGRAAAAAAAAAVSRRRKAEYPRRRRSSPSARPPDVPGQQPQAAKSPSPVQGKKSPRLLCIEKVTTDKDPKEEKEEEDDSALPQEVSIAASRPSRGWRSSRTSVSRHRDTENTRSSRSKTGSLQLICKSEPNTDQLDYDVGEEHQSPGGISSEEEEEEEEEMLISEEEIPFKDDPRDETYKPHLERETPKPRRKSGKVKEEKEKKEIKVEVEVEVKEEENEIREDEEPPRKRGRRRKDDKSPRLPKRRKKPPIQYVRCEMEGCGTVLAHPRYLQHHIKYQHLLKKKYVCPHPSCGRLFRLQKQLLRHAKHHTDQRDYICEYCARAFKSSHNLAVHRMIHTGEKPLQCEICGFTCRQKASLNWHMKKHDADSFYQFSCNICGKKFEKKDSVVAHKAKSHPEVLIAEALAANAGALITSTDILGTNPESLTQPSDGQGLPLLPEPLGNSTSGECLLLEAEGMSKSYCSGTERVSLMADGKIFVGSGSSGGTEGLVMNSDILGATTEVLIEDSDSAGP", "UniProt Q8WUH1": "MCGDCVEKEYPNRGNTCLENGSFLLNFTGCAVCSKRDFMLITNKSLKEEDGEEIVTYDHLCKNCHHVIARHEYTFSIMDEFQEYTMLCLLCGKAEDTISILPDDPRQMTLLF", "UniProt P0DMV8, whole entry, looked up": "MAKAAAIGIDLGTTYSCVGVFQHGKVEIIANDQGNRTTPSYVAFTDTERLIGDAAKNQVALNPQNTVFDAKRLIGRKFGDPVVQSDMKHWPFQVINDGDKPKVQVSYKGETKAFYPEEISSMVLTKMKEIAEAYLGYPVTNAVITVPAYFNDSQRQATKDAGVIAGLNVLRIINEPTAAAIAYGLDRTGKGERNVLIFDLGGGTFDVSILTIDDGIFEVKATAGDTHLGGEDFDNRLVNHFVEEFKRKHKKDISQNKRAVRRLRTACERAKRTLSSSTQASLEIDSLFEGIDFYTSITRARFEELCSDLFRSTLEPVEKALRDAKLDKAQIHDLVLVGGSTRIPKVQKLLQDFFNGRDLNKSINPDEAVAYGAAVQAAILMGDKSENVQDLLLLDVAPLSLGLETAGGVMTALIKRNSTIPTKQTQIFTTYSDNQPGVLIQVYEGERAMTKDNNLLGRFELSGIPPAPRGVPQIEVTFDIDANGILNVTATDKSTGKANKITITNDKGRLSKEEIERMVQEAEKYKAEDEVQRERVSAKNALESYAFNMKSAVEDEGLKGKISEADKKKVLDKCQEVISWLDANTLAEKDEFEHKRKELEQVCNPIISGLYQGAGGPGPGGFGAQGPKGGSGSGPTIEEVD", "UniProt Q9UHJ6": "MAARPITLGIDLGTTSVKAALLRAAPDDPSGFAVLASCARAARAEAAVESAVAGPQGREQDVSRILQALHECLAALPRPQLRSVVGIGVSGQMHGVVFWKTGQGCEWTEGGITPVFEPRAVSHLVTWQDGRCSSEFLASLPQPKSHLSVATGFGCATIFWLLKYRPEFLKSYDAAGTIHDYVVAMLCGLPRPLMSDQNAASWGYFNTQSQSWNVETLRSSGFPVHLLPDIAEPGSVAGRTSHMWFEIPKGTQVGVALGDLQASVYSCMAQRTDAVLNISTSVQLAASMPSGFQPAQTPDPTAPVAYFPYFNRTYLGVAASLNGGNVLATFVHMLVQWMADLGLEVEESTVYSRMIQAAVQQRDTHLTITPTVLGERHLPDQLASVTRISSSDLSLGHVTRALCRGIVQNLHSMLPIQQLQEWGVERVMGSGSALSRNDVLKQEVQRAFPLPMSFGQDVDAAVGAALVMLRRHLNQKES", "UniProt Q6NVY1": "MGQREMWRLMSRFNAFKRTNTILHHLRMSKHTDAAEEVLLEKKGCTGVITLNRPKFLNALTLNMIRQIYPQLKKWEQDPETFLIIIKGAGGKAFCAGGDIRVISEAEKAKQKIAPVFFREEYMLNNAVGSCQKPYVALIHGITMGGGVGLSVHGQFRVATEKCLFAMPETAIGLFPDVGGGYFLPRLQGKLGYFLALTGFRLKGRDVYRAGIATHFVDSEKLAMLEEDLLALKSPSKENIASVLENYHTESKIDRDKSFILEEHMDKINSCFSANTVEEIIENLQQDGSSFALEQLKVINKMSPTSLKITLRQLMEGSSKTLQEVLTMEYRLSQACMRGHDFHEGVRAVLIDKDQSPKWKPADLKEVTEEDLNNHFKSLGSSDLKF", "UniProt Q05193": "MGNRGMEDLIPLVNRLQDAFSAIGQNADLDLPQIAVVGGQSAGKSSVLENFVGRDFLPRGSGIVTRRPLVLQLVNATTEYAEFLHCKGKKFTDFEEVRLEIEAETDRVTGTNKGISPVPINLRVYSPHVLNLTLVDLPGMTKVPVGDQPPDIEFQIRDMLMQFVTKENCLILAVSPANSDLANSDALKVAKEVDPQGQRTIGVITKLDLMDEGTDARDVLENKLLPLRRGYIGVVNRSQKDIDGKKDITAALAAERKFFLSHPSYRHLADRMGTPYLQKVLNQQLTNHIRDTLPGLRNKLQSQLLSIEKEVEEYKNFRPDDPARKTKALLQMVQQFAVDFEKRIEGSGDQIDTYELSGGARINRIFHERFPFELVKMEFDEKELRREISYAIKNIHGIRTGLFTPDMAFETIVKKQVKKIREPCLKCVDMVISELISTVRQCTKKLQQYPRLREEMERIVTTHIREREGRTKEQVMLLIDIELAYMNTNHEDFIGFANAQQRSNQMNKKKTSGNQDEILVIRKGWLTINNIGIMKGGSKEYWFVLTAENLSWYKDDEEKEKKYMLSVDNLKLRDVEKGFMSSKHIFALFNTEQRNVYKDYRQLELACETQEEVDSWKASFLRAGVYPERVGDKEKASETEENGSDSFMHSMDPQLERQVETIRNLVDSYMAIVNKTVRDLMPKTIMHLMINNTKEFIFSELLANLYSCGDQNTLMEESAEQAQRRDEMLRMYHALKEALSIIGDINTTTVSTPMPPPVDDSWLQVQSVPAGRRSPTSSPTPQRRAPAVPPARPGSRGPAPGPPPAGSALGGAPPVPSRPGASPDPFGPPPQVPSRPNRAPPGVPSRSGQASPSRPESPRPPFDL", "UniProt Q14966": "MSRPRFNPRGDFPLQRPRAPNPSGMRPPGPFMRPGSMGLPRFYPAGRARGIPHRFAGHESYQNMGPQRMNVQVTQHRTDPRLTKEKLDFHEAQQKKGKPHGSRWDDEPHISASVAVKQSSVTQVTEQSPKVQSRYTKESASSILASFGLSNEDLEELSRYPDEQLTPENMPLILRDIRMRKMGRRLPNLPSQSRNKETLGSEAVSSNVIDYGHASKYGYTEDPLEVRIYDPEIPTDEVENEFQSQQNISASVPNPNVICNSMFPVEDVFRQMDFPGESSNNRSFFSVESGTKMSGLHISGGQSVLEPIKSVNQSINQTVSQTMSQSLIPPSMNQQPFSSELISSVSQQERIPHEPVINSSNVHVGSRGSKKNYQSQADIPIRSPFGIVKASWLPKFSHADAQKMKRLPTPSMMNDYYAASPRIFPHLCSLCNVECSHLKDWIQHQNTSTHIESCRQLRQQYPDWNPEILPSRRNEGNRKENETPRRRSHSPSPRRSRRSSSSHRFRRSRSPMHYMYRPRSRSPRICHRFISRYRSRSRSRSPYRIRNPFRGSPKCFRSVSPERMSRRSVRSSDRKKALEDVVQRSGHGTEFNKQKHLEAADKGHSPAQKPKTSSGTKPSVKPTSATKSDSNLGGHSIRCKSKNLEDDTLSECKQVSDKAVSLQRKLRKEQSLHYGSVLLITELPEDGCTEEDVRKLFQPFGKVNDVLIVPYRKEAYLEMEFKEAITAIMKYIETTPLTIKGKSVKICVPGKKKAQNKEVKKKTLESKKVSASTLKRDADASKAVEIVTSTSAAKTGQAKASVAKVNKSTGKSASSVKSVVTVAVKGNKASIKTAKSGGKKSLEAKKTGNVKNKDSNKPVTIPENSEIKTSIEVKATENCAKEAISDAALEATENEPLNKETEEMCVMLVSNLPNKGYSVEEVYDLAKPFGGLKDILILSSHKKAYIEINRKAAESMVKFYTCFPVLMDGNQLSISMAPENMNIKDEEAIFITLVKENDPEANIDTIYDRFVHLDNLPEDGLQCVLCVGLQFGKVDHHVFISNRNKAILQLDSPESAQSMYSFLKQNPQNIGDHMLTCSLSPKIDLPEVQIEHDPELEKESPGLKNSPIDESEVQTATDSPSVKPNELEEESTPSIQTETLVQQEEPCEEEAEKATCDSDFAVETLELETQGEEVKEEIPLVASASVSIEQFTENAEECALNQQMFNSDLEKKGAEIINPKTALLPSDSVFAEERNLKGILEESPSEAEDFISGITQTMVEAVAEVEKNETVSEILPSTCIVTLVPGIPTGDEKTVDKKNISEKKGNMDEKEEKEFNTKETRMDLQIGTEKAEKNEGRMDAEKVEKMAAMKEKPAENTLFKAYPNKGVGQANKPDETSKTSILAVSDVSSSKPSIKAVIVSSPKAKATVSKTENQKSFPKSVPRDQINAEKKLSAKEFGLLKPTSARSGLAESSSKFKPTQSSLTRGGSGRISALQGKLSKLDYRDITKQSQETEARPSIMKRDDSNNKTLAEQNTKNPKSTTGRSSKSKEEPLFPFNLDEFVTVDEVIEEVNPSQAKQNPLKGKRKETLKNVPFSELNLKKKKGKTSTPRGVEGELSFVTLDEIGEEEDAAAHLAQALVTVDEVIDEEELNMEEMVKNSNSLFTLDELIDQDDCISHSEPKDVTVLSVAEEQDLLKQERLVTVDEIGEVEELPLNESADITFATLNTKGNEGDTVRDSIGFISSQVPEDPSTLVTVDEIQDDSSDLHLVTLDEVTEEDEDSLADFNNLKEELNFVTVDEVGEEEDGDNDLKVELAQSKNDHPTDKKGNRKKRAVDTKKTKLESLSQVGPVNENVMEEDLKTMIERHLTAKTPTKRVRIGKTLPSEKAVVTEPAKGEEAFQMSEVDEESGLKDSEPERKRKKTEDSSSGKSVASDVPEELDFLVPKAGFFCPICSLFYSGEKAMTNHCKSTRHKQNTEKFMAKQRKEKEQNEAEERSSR", "UniProt Q96CB8, whole entry": "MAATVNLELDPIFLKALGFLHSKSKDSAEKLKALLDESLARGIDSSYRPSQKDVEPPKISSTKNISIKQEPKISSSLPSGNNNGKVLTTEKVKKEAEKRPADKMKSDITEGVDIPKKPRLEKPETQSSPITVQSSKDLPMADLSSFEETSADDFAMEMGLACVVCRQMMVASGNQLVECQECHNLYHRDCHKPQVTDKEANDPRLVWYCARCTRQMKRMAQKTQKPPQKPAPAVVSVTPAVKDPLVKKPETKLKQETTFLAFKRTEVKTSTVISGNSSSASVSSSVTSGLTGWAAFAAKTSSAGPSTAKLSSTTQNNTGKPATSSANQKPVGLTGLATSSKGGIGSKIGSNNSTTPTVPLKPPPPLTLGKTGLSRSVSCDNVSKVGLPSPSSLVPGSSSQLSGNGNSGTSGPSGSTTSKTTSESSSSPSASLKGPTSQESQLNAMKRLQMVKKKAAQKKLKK", "UniProt Q2M2I8": "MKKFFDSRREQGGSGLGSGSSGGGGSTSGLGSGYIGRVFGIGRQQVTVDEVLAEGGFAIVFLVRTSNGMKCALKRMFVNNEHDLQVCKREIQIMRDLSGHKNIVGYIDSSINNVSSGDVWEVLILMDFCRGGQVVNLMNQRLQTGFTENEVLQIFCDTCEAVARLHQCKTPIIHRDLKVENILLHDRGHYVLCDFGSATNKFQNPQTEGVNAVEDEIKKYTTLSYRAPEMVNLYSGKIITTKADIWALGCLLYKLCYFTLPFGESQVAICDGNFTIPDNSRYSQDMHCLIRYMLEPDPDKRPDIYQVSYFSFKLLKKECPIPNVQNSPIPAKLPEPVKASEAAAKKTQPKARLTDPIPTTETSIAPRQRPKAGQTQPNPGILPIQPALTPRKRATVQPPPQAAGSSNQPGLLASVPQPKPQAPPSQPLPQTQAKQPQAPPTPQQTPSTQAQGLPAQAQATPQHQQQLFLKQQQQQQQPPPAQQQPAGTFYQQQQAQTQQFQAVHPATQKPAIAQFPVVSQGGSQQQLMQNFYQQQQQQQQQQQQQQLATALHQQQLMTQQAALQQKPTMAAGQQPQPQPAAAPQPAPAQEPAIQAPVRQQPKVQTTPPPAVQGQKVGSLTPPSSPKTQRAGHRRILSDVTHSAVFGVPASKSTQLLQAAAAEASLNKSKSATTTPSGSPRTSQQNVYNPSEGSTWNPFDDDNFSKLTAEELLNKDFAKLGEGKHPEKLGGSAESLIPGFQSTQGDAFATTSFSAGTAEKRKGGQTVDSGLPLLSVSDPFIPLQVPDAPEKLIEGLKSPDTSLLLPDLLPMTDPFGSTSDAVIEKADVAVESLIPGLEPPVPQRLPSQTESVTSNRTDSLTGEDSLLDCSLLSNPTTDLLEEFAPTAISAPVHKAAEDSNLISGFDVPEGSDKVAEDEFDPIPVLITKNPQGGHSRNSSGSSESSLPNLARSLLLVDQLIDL"}, "source": "the supplement of paper PMC6411743", "note": "± gives the standard deviation of the averaged measurements. This is one part of the list."}
{"compound": "Nc1nc2c(ncn2[C@@H]2O[C@H](COP(=O)(O)OP(=O)(O)OP(=O)(O)O)[C@@H](O)[C@H]2O)c(=O)[nH]1 [guanosine triphosphate]", "assay": "NP40-soluble protein abundance relative to vehicle (solubility fold change) (ratio); higher = more soluble protein in presence of GTP", "details": "concentration: 8mM", "how_it_was_run": "(§1)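 Data come from three independent experiments in which Dounce-homogenised Jurkat crude lysate was treated at eight concentrations from 0.1 to 10 mM. Treatment ran 10 min at room temperature and then 3 min at 37 °C, after which 0.8% NP40 and benzonase were added for 60 min at 4 °C before ultracentrifugation. The supernatant underwent TMT labelling and LC-MS/MS, and vsn-normalised intensities were expressed as fold change against the detergent-processed vehicle in each replicate.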"}
{"target": "A0A0G2JLB3|A0A0G2JNZ5|P04062 and related entries (UniProt P04062)", "NP40-soluble protein abundance": "0.884 ± 0.069"}
{"target": "A0A0B4J1R7|Q96B45 (UniProt Q96B45)", "NP40-soluble protein abundance": "1.02 ± 0.12"}
{"target": "A0A0A0MT22|P08575 and related entries (UniProt P08575)", "NP40-soluble protein abundance": "0.897 ± 0.058"}
{"target": "A0A0J9YWL0|Q9Y4K1 (UniProt Q9Y4K1)", "NP40-soluble protein abundance": "1.07 ± 0.046"}
{"target": "A0A087WZ97|A0A087WZK6|A0A087X2C2|Q5T7M9 (UniProt Q5T7M9)", "NP40-soluble protein abundance": "1.02 ± 0.054"}
{"target": "UniProt A4D161 and related entries", "NP40-soluble protein abundance": "0.979 ± 0.062"}
{"target": "A0A0A6YYC7|Q96JP5 and related entries (UniProt Q96JP5)", "NP40-soluble protein abundance": "0.913 ± 0.024"}
{"target": "A0A0C4DGJ7|Q8WUH1 and related entries (UniProt Q8WUH1)", "NP40-soluble protein abundance": "1 ± 0.052"}
{"target": "A0A087WY82|Q9Y624 and related entries (UniProt Q9Y624)", "NP40-soluble protein abundance": "0.858 ± 0.076"}
{"target": "A0A0A6YYC8|I3L1I5 (UniProt I3L1I5)", "NP40-soluble protein abundance": "1.29 ± 0.23"}
{"target": "A0JP02 and related entries (UniProt Q9HAU0)", "NP40-soluble protein abundance": "1.17 ± 0.088"}
{"target": "A0A140T9B7|P01889 and related entries (UniProt P30493+P30685+Q04826+D0EV57+P01889+P30460+Q29865+Q6DU44+Q8MH48+P10321+P30486+P30508+Q29718+Q29836+P04440+P04439+Q5SRN5+O19617+Q29963+Q9TNN7)", "NP40-soluble protein abundance": "0.912 ± 0.061"}
{"target": "A6NCE7 and related entries (UniProt Q9GZQ8+H3BTL1+A6NCE7)", "NP40-soluble protein abundance": "0.918 ± 0.072"}
{"target": "A0A0G2JIW1|P0DMV8 and related entries (UniProt P0DMV9+P0DMV8)", "NP40-soluble protein abundance": "0.969 ± 0.081"}
{"target": "A0A087X127|E7EWM3 and related entries (UniProt Q8NF64)", "NP40-soluble protein abundance": "0.948 ± 0.078"}
{"target": "A0A0C3SFZ9|M0QZI3 and related entries (UniProt O14526)", "NP40-soluble protein abundance": "1.03 ± 0.036"}
{"target": "A0A0B4J2A0|Q9UHJ6 (UniProt Q9UHJ6)", "NP40-soluble protein abundance": "0.944 ± 0.067"}
{"target": "A2IDA3 and related entries (UniProt P29372)", "NP40-soluble protein abundance": "1.33 ± 0.067"}
{"target": "A0A0A0MR05|H3BSZ4 and related entries (UniProt Q9BVC4)", "NP40-soluble protein abundance": "1.13 ± 0.098"}
{"target": "A0A087WXI1|Q6NVY1 (UniProt Q6NVY1)", "NP40-soluble protein abundance": "0.861 ± 0.096"}
{"target": "A0A0D9SFB1|A0A0D9SFE4|A0A0U1RQP1|Q05193 and related entries (UniProt Q05193)", "NP40-soluble protein abundance": "0.884 ± 0.18"}
{"target": "A0A087X1G1|C9IZN5 and related entries (UniProt Q16718)", "NP40-soluble protein abundance": "1.06 ± 0.026"}
{"target": "A0A0C4DFQ0|E9PL24 and related entries (UniProt Q5VU43)", "NP40-soluble protein abundance": "1.04 ± 0.11"}
{"target": "A0A087X0V4|A8K0B5 and related entries (UniProt Q8IWT0)", "NP40-soluble protein abundance": "0.985 ± 0.061"}
{"target": "A0A096LPH6|Q14966 and related entries (UniProt Q14966)", "NP40-soluble protein abundance": "1.08 ± 0.07"}
{"target": "A0A0C4DG40|Q8NF91 and related entries (UniProt Q8NF91)", "NP40-soluble protein abundance": "1.04 ± 0.053"}
{"target": "A0A0J9YXZ6|Q4VXZ8 and related entries (UniProt Q9NUI1)", "NP40-soluble protein abundance": "1.059 ± 0.01"}
{"target": "A0A0A0MTB8|Q8NI36 (UniProt Q8NI36)", "NP40-soluble protein abundance": "2.33 ± 0.13"}
{"target": "A0A087X1F9|E9PI02 and related entries (UniProt Q00613)", "NP40-soluble protein abundance": "0.892 ± 0.11"}
{"target": "A0A087WXZ7|K7EIX2 and related entries (UniProt Q6AI08)", "NP40-soluble protein abundance": "1.04 ± 0.02"}
{"target": "A0A087WXN4|Q96CB8 (UniProt Q96CB8)", "NP40-soluble protein abundance": "1.12 ± 0.11"}
{"target": "A0A0A0MQZ6|O95478 (UniProt O95478)", "NP40-soluble protein abundance": "1.16 ± 0.23"}
{"target": "A0A0A6YYI3|A0A0B4J1V8|Q9NQ55 and related entries (UniProt Q9NQ55)", "NP40-soluble protein abundance": "1.18 ± 0.07"}
{"target": "A0A096LP25|Q2M2I8 and related entries (UniProt Q2M2I8)", "NP40-soluble protein abundance": "0.985 ± 0.058"}
{"target": "A0A0A0MT72|E9PEC4 and related entries (UniProt Q9BSQ5)", "NP40-soluble protein abundance": "0.84 ± 0.043"}
{"target": "A0A0J9YYD9", "NP40-soluble protein abundance": "1.25 ± 0.17"}
{"compound": "Nc1nc2c(ncn2[C@@H]2O[C@H](COP(=O)(O)OP(=O)(O)OP(=O)(O)O)[C@@H](O)[C@H]2O)c(=O)[nH]1 [guanosine triphosphate]", "assay": "NP40-soluble protein abundance relative to vehicle (solubility fold change) (ratio); higher = more soluble protein in presence of GTP", "details": "concentration: 10mM", "how_it_was_run": "as §1"}
{"target": "A0A0G2JLB3|A0A0G2JNZ5|P04062 and related entries (UniProt P04062)", "NP40-soluble protein abundance": "0.829 ± 0.1"}
{"target": "A0A0B4J1R7|Q96B45 (UniProt Q96B45)", "NP40-soluble protein abundance": "1.06 ± 0.18"}
{"target": "A0A0A0MT22|P08575 and related entries (UniProt P08575)", "NP40-soluble protein abundance": "0.91 ± 0.061"}
{"target": "A0A0J9YWL0|Q9Y4K1 (UniProt Q9Y4K1)", "NP40-soluble protein abundance": "1.07 ± 0.024"}
{"target": "A0A087WZ97|A0A087WZK6|A0A087X2C2|Q5T7M9 (UniProt Q5T7M9)", "NP40-soluble protein abundance": "0.983 ± 0.04"}
{"target": "UniProt A4D161 and related entries", "NP40-soluble protein abundance": "1.01 ± 0.16"}
{"target": "A0A0A6YYC7|Q96JP5 and related entries (UniProt Q96JP5)", "NP40-soluble protein abundance": "0.965 ± 0.036"}
{"target": "A0A0C4DGJ7|Q8WUH1 and related entries (UniProt Q8WUH1)", "NP40-soluble protein abundance": "0.952 ± 0.035"}
{"target": "A0A087WY82|Q9Y624 and related entries (UniProt Q9Y624)", "NP40-soluble protein abundance": "0.898 ± 0.011"}
{"target": "A0A0A6YYC8|I3L1I5 (UniProt I3L1I5)", "NP40-soluble protein abundance": "1.31 ± 0.22"}
{"target": "A0JP02 and related entries (UniProt Q9HAU0)", "NP40-soluble protein abundance": "1.15 ± 0.083"}
{"target": "A0A140T9B7|P01889 and related entries (UniProt P30493+P30685+Q04826+D0EV57+P01889+P30460+Q29865+Q6DU44+Q8MH48+P10321+P30486+P30508+Q29718+Q29836+P04440+P04439+Q5SRN5+O19617+Q29963+Q9TNN7)", "NP40-soluble protein abundance": "0.893 ± 0.075"}
{"target": "A6NCE7 and related entries (UniProt Q9GZQ8+H3BTL1+A6NCE7)", "NP40-soluble protein abundance": "0.901 ± 0.088"}
{"target": "A0A0G2JIW1|P0DMV8 and related entries (UniProt P0DMV9+P0DMV8)", "NP40-soluble protein abundance": "0.951 ± 0.072"}
{"target": "A0A087X127|E7EWM3 and related entries (UniProt Q8NF64)", "NP40-soluble protein abundance": "0.936 ± 0.19"}
{"target": "A0A0C3SFZ9|M0QZI3 and related entries (UniProt O14526)", "NP40-soluble protein abundance": "1 ± 0.016"}
{"target": "A0A0B4J2A0|Q9UHJ6 (UniProt Q9UHJ6)", "NP40-soluble protein abundance": "0.924 ± 0.1"}
{"target": "A2IDA3 and related entries (UniProt P29372)", "NP40-soluble protein abundance": "1.37 ± 0.15"}
{"target": "A0A0A0MR05|H3BSZ4 and related entries (UniProt Q9BVC4)", "NP40-soluble protein abundance": "1.12 ± 0.029"}
{"target": "A0A087WXI1|Q6NVY1 (UniProt Q6NVY1)", "NP40-soluble protein abundance": "0.841 ± 0.096"}
{"target": "A0A0D9SFB1|A0A0D9SFE4|A0A0U1RQP1|Q05193 and related entries (UniProt Q05193)", "NP40-soluble protein abundance": "0.909 ± 0.18"}
{"target": "A0A087X1G1|C9IZN5 and related entries (UniProt Q16718)", "NP40-soluble protein abundance": "1.16 ± 0.27"}
{"target": "A0A0C4DFQ0|E9PL24 and related entries (UniProt Q5VU43)", "NP40-soluble protein abundance": "1.03 ± 0.11"}
{"target": "A0A087X0V4|A8K0B5 and related entries (UniProt Q8IWT0)", "NP40-soluble protein abundance": "0.982 ± 0.1"}
{"target": "A0A096LPH6|Q14966 and related entries (UniProt Q14966)", "NP40-soluble protein abundance": "1.1 ± 0.091"}
{"target": "A0A0C4DG40|Q8NF91 and related entries (UniProt Q8NF91)", "NP40-soluble protein abundance": "1.01 ± 0.1"}
{"target": "A0A0J9YXZ6|Q4VXZ8 and related entries (UniProt Q9NUI1)", "NP40-soluble protein abundance": "1.054 ± 0.0072"}
{"target": "A0A0A0MTB8|Q8NI36 (UniProt Q8NI36)", "NP40-soluble protein abundance": "2.39 ± 0.3"}
{"target": "A0A087X1F9|E9PI02 and related entries (UniProt Q00613)", "NP40-soluble protein abundance": "0.868 ± 0.092"}
{"target": "A0A087WXZ7|K7EIX2 and related entries (UniProt Q6AI08)", "NP40-soluble protein abundance": "1.14 ± 0.054"}
{"target": "A0A087WXN4|Q96CB8 (UniProt Q96CB8)", "NP40-soluble protein abundance": "1.13 ± 0.13"}
{"target": "A0A0A0MQZ6|O95478 (UniProt O95478)", "NP40-soluble protein abundance": "1.2 ± 0.18"}
{"target": "A0A0A6YYI3|A0A0B4J1V8|Q9NQ55 and related entries (UniProt Q9NQ55)", "NP40-soluble protein abundance": "1.373 ± 0.0097"}
{"target": "A0A096LP25|Q2M2I8 and related entries (UniProt Q2M2I8)", "NP40-soluble protein abundance": "0.98 ± 0.074"}
{"target": "A0A0A0MT72|E9PEC4 and related entries (UniProt Q9BSQ5)", "NP40-soluble protein abundance": "0.938 ± 0.091"}
{"target": "A0A0J9YYD9", "NP40-soluble protein abundance": "1.31 ± 0.23"}
